Laboratory results published in paper doi:10.1101/2025.04.18.649622.
These are yes or no findings as the source states them, for the method shown. Binding seen in cells or lysates may run through a third protein. A yes stands for co-enrichment or nearness to the bait. Other partners may have been found. Where a sequence is shown, tags or fusion partners need not be part of it.

By UniProt entry, the sequences of proteins in these tests, tags left out.
UniProt O00401: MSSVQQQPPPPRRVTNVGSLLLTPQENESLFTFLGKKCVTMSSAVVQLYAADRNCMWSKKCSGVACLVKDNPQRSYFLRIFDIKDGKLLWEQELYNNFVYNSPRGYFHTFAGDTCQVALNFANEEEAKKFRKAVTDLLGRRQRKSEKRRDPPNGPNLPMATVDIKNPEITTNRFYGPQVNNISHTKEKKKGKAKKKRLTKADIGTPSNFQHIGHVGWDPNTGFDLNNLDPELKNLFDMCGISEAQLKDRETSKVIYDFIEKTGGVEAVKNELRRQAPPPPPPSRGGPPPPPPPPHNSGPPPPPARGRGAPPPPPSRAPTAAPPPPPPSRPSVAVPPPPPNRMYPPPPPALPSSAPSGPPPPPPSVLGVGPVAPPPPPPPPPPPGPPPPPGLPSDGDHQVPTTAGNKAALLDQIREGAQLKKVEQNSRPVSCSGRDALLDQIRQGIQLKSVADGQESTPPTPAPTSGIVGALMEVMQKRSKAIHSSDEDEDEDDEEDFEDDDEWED
UniProt Q00610: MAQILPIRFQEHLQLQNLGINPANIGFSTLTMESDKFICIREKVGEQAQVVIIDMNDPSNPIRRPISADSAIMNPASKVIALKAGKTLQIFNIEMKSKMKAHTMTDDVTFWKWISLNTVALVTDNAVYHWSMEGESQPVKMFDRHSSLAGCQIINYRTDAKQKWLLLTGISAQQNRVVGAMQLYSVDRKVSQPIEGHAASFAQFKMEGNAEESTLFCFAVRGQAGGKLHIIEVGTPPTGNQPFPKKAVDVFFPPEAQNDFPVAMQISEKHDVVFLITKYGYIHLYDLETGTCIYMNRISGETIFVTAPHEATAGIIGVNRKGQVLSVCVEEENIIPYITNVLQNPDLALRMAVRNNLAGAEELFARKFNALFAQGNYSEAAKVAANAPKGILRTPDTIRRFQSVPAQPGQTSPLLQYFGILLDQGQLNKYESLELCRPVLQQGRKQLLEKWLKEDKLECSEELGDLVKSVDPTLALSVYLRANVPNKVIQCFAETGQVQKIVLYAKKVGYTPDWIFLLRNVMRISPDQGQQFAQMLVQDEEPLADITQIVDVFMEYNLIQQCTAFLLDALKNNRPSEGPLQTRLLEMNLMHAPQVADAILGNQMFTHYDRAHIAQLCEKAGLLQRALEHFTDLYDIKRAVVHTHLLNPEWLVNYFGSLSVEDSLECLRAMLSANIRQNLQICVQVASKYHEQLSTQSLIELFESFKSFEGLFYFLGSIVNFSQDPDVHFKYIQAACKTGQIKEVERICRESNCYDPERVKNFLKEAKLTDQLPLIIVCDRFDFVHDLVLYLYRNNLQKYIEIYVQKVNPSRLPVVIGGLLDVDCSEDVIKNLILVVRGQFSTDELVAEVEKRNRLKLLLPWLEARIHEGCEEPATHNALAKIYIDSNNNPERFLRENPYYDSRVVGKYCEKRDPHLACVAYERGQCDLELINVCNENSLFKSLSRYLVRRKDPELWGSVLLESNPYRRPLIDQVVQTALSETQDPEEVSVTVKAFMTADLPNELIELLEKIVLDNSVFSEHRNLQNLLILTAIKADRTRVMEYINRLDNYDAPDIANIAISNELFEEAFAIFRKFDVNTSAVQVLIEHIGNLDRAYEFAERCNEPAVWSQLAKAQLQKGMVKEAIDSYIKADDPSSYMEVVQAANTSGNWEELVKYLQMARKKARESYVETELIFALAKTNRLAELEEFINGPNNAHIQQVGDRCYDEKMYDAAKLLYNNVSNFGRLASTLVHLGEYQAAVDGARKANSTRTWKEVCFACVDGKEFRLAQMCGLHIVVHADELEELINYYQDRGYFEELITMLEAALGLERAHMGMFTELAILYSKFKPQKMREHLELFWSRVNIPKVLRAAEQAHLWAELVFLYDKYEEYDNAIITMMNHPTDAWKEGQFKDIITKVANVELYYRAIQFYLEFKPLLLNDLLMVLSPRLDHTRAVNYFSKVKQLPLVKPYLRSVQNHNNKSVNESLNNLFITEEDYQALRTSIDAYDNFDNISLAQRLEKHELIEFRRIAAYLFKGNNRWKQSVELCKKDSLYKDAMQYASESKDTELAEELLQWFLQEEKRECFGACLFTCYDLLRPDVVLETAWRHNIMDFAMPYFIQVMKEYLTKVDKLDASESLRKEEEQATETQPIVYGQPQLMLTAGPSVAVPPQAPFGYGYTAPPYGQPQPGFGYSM
UniProt O43639: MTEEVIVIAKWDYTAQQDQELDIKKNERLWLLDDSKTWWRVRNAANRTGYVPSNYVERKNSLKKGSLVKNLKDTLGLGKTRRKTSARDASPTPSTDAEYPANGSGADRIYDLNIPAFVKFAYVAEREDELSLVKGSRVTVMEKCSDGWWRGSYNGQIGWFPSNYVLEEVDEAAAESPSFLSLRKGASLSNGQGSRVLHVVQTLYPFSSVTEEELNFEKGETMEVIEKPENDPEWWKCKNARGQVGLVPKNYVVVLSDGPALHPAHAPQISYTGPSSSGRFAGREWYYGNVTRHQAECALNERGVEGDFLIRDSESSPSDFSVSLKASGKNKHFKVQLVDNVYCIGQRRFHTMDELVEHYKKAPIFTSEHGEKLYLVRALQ
UniProt Q9H792: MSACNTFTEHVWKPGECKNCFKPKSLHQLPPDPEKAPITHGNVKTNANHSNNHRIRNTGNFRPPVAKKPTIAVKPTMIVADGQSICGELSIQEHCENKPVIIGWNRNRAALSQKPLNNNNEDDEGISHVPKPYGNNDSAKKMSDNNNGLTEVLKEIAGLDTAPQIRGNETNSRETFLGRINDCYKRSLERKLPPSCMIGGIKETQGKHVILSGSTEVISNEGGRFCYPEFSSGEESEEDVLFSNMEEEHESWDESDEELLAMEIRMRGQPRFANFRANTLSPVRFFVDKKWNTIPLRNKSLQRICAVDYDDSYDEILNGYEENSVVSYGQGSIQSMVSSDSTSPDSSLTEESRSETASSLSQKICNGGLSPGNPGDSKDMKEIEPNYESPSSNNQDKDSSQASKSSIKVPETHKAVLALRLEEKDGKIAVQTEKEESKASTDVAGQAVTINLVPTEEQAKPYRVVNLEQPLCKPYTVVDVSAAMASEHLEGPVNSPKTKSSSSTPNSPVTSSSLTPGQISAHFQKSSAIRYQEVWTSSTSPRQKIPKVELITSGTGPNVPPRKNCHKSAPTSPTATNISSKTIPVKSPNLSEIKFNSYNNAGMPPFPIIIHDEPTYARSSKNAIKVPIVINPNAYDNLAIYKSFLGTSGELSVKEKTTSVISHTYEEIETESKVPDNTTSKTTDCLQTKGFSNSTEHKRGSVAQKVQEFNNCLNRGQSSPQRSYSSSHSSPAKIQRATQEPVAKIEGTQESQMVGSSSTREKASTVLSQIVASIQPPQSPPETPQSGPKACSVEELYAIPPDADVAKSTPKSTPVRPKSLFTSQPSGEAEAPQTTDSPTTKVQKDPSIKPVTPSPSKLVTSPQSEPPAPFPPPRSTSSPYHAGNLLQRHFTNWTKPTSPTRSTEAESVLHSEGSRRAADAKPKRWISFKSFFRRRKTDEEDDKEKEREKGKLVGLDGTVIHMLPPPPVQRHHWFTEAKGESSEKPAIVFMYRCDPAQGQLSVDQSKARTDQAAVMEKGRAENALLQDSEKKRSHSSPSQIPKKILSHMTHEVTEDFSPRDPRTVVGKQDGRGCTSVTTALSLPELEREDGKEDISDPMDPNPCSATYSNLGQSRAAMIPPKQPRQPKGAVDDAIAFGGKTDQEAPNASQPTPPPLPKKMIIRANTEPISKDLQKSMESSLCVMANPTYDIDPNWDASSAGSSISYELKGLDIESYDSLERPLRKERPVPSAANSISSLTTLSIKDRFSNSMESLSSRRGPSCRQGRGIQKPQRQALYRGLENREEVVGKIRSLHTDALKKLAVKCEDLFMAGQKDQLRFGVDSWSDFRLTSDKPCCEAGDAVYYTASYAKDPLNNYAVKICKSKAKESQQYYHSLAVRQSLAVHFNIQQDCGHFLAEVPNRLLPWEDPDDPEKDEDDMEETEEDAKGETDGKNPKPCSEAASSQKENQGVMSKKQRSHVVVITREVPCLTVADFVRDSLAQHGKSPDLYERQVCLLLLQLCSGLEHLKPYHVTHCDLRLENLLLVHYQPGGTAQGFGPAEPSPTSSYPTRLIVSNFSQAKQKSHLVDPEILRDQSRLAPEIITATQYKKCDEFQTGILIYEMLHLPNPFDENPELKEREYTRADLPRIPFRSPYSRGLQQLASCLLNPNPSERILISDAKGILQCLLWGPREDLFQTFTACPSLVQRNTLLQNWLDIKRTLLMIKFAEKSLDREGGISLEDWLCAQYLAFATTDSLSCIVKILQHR
UniProt Q13153: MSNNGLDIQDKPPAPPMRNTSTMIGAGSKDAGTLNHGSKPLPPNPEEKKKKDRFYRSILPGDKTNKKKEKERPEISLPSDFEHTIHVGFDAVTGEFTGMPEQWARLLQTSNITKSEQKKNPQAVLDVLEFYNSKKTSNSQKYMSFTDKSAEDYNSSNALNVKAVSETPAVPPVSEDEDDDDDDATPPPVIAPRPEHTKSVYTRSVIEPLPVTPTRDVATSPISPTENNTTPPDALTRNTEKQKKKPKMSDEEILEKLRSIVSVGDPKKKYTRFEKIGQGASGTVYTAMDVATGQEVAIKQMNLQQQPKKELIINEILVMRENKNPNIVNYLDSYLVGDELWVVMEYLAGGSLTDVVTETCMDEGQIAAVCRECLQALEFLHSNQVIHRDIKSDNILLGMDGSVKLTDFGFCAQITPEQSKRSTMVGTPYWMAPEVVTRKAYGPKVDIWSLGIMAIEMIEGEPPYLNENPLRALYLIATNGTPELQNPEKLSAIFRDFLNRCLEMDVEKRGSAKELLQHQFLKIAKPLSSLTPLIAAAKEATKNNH
UniProt Q13177: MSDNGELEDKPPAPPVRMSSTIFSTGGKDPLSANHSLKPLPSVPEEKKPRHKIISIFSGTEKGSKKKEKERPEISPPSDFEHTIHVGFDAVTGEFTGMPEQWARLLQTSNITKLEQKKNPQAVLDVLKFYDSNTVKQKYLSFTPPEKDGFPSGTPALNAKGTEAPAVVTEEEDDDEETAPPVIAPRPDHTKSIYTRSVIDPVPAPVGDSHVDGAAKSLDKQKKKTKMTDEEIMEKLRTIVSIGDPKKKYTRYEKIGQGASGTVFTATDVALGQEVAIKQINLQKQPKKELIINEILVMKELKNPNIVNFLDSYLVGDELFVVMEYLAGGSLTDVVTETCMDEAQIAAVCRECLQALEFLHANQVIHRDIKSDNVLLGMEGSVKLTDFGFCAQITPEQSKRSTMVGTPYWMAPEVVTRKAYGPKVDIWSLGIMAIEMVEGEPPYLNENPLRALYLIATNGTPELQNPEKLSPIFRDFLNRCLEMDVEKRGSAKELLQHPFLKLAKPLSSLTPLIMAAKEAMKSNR
UniProt O96013: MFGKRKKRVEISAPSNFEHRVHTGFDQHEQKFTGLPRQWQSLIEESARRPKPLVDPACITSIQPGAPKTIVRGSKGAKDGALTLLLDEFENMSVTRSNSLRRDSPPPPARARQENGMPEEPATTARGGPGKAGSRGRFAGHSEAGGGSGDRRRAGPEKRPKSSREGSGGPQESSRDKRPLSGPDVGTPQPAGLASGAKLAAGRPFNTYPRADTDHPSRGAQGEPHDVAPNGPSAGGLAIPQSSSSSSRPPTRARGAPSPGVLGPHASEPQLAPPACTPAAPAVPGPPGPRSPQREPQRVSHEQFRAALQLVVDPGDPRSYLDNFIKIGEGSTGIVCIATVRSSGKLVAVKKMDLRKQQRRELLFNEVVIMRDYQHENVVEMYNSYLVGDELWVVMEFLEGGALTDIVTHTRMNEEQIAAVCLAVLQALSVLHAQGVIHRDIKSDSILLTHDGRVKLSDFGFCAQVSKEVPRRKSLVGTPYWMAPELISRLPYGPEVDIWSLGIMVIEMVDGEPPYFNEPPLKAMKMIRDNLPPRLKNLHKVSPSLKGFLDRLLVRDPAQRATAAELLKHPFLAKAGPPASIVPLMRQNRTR

T1: FLAG-tagged RHOV (UniProt Q96L33)
T1 sequence: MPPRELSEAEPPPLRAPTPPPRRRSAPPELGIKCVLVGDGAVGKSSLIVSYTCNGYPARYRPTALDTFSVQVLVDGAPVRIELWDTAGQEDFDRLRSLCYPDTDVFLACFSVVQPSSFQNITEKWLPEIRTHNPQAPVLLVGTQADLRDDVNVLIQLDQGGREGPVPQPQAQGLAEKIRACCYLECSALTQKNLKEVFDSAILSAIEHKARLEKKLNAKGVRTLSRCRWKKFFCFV

B1: GIT2 (protein, UniProt Q14161 1-759)
chain: MSKRLRSSEVCADCSGPDPSWASVNRGTFLCDECCSVHRSLGRHISQVRHLKHTPWPPTLLQMVETLYNNGANSIWEHSLLDPASIMSGRRKANPQDKVHPNKAEFIRAKYQMLAFVHRLPCRDDDSVTAKDLSKQLHSSVRTGNLETCLRLLSLGAQANFFHPEKGNTPLHVASKAGQILQAELLAVYGADPGTQDSSGKTPVDYARQGGHHELAERLVEIQYELTDRLAFYLCGRKPDHKNGQHFIIPQMADSSLDLSELAKAAKKKLQSLSNHLFEELAMDVYDEVDRRETDAVWLATQNHSALVTETTVVPFLPVNPEYSSTRNQGRQKLARFNAHEFATLVIDILSDAKRRQQGSSLSGSKDNVELILKTINNQHSVESQDNDQPDYDSVASDEDTDLETTASKTNRQKSLDSDLSDGPVTVQEFMEVKNALVASEAKIQQLMKVNNNLSDELRIMQKKLQTLQSENSNLRKQATTNVYQVQTGSEYTDTSNHSSLKRRPSARGSRPMSMYETGSGQKPYLPMGEASRPEESRMRLQPFPAHIGRSALVTSSSSLPSFPSTLSWSRDESARRASRLEKQNSTPESDYDNTPNDMEPDGMGSSRKGRQRSMVWPGDGLVPDTAEPHVAPSPTLPSTEDVIRKTEQITKNIQELLRAAQENKHDSYIPCSERIHVAVTEMAALFPKKPKSDMVRTSLRLLTSSAYRLQSECKKTLPGDPGSPTDVQLVTQQVIQCAYDIAKAAKQLVTITTKENNN

The molecules below were run against T1, FLAG-tagged RHOV (assay: affinity purification with mass spectrometry).

binding, binds:
WASL (from UniProt O00401 1-505), CLH1 (from UniProt Q00610 1-1675), NCK2 (from UniProt O43639 1-380), Pseudopodium Enriched Atypical Kinase 1 (PEAK1) (from UniProt Q9H792 1-1746), IQGAP1 (from UniProt P46940 1-1657), PAK1 (from UniProt Q13153 1-545), DLG5 (from UniProt Q8TDM6 1-1919), PAK2 (from UniProt Q13177 1-524), PAK4 (from UniProt O96013 1-591), B1
